From PMC4605318
No constants are given. Whether binding was seen depends on the method and setting. Binding seen in cells or lysates may run through a third protein. Some binding calls cover weakened binding; strength is not graded here. Sequences can lack the tags named with a protein.

By UniProt entry, the sequences of proteins in these tests, tags left out.
UniProt P09874: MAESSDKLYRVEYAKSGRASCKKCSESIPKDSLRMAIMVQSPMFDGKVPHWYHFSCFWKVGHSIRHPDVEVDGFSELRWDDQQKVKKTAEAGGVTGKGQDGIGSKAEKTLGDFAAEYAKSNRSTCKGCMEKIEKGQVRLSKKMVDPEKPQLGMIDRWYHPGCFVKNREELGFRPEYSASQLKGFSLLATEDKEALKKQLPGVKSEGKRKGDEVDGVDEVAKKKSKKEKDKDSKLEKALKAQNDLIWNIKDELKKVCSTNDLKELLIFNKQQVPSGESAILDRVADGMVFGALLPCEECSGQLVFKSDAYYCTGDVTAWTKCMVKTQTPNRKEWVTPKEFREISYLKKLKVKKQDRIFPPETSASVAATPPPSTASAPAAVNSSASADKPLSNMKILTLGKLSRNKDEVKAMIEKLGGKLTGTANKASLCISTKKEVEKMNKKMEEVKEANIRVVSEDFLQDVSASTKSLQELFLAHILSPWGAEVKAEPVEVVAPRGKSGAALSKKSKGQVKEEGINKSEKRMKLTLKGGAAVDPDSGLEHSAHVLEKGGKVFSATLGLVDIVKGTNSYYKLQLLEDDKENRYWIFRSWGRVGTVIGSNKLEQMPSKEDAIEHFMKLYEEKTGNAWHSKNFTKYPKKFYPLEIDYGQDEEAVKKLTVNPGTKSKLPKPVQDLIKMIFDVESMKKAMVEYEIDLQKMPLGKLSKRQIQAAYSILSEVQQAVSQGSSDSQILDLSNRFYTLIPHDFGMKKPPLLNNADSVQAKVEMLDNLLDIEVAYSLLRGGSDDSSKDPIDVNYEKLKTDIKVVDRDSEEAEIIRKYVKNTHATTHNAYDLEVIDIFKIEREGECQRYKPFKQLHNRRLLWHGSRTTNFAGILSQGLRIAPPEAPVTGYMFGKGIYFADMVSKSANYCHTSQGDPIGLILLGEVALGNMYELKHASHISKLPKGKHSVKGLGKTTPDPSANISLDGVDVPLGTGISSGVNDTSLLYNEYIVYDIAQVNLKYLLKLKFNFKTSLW
UniProt Q9Y5B9: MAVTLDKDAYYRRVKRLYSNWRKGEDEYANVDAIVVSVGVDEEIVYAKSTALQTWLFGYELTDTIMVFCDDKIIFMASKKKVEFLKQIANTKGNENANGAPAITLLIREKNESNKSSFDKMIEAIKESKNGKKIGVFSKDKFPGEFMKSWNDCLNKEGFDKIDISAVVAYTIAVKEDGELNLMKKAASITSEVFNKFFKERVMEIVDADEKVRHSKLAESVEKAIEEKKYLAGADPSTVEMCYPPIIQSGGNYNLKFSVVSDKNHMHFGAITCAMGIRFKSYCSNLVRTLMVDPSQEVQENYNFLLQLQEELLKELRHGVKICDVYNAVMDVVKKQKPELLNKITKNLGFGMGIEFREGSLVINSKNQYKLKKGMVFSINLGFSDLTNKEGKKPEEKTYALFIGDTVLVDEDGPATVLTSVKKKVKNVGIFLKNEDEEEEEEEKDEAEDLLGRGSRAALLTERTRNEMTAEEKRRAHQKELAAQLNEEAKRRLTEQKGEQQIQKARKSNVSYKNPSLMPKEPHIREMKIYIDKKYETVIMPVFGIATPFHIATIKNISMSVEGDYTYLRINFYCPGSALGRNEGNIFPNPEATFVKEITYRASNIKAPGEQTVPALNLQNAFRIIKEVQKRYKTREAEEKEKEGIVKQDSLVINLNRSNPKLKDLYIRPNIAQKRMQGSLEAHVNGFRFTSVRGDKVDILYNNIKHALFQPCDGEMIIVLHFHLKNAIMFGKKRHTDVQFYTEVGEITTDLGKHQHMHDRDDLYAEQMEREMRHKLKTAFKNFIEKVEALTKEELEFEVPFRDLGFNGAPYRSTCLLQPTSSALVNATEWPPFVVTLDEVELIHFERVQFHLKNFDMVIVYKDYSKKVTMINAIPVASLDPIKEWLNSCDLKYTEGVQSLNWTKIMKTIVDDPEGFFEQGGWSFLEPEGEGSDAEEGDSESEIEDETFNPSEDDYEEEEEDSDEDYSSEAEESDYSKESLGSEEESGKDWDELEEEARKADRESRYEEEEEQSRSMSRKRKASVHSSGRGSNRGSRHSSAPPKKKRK

Target: T1, FLAG-HA-SMYD3 (SET and MYND domain containing protein 3) (human) (UniProt Q9H7B4)
T1 sequence: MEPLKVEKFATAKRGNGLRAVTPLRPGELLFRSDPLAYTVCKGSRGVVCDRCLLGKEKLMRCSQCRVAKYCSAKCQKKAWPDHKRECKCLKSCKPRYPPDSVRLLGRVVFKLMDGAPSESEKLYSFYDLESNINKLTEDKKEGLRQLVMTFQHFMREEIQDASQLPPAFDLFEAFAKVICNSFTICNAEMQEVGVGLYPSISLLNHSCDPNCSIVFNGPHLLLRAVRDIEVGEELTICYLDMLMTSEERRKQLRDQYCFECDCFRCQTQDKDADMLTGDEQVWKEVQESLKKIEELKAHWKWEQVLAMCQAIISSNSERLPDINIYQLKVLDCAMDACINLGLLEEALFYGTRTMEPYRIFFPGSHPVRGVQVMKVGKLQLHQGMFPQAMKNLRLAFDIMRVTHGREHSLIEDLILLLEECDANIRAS
Experiment: co-IP; the purified FLAG-HA-SMYD3 sample of Figure 2A analysed by immunoblotting; the methods tell of FLAG-tagged SMYD3 in HCT116 whole cell lysates, anti-FLAG Sepharose beads overnight at 4°C, blots with anti-PARP1, anti-SPT16, anti-Nucleolin, anti-H2B and anti-PC4

binding	Substance
binds	PARP1 (from UniProt P09874 1-1014)
binds	SPT16 (from UniProt Q9Y5B9 1-1047)
